Some of these results come from one statement about several compounds together. For some of these results: For at least one compound, name, drawing or mass did not settle the structure.
Assays:
[1] = molecular target: T1, human bradykinin B1 receptor (Homo sapiens, UniProt P46663); experiment: Radioligand binding assay for human B1 bradykinin receptor; details: [3H] des-arg10 kallidin, membranes of CHO cells with human B1 receptor; read-out: binding Ki's to the hB1 receptor
T1 construct: expressed in transfected cells; host or cells: CHO-d-AQN cells (membrane preparation)
T1 sequence (P46663 1-353): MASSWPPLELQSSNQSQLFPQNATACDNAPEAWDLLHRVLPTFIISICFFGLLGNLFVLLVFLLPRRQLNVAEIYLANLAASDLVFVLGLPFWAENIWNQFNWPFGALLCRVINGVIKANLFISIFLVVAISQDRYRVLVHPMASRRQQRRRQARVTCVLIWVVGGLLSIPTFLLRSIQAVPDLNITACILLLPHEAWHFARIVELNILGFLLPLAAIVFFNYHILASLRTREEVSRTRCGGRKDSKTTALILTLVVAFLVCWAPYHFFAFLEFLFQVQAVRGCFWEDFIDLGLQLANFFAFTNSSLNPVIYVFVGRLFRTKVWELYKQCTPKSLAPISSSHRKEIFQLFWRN

hB1 receptor = molecular target: T2, hB1 receptor (Homo sapiens, UniProt P46663); experiment: In vitro assay of human B1 receptor function using calcium flux (aequorin); assay type: cell-based; details: CHO D-/hB1/Aequorin cells, 20 nM des-Arg10-Kallidin (EC80); read-out: binding IC50's to hB1 receptor function
T2 construct: expressed in transfected cells
T2 sequence (P46663 1-353): T1 sequence (P46663 1-353)

For CC(c1ccc2c(c1)CCC[C@H]2N)N1CCCCC1 (stereo partly drawn) [Example 12, (1R)-6-(1-(piperidin-1-yl)ethyl)-1,2,3,4-tetrahydronaphthalen-1-amine], the Ki [1] was less than 1 µM and the IC50 (hB1 receptor) was less than 1 µM.

For NCc1ccc(CN2CCCCC2)cc1 [Example 14, 4-Piperidin-1-ylmethyl-benzylamine], the Ki [1] was less than 1 µM.

Compound CC(C)CN1CCc2c(ccc3c2CCC[C@H]3N)C1 [Example 6, (R)-3-isobutyl-1,2,3,4,7,8,9,10-octahydrobenzo[f]isoquinolin-7-amine] has a Ki [1] of less than 1 µM.

With NCCc1ccc(-c2nnc[nH]2)cc1 [Example 9, 2-(4-(4H-1,2,4-triazol-3-yl)phenyl)ethanamine] the Ki [1] was less than 1 µM and the IC50 (hB1 receptor) was less than 1 µM.

Work on CN[C@@H]1CCCc2cc(CN3CCCCC3)ccc21 [Example 11, (R)-N-methyl-6-(piperidin-1-ylmethyl)-1,2,3,4-tetrahydro-naphthalen-1-amine] yielded a Ki [1] of less than 1 µM and an IC50 (hB1 receptor) of less than 1 µM.

N[C@@H]1CCCc2cc(CN3CCCCC3)c([N+](=O)[O-])cc21 [Example 10, (R)-7-nitro-6-(piperidin-1-ylmethyl)-1,2,3,4-tetrahydronaphthalen-1-amine] was tested, and the Ki [1] was less than 1 µM and the IC50 (hB1 receptor) was less than 1 µM.

In the case of CC1(C)CC(N)c2ccccc2O1 (stereo not shown) [Example 4, 2,2-dimethyl-3,4-dihydro-2H-chomen-4-amine], the Ki [1] is reported as less than 1 µM.

CC(C)CN1CCc2cc3c(cc2C1)CCC[C@H]3N [Example 7, (R)-2-isobutyl-1,2,3,4,6,7,8,9-octahydrobenzo[g]isoquinolin-6-amine] gave a Ki [1] of less than 1 µM and an IC50 (hB1 receptor) of less than 1 µM.

Source: patent publication US7662811B2, “1,2,3,4-tetrahydropyrazin-2-yl acetamides and methods of use” (Amgen Inc., priority 2004, dated 2010)
